According to patent US20130345294:
Where a protein sequence is shown, tags need not be part of it.

System: T1, NLVG(N56K+C71V) (NLS-LexA(1-87)-VIVID-Gal4AD) (artificial)
T1 sequence: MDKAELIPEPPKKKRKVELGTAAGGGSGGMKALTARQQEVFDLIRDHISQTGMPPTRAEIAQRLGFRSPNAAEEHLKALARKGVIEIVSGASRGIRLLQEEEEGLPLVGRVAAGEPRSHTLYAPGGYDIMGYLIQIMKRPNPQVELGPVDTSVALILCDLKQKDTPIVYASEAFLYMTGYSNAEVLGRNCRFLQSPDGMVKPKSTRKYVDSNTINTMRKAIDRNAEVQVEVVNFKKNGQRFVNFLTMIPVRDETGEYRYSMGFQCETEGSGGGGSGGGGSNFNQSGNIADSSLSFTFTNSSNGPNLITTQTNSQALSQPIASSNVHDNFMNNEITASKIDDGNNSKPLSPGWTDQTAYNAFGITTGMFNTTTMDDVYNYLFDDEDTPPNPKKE
Assay: activity in cells
Settings: yeast AH109, EYFP increased by blue light; highest induction ratio of the four; protein in cells

Sequence: TCGAGGGCGTTCGTCCTCACTGTATGATCATACAGTCTGTATATATATACAGTACTGTATGATCATACAGGTTCCTGAAACGCAGATGTGCCTACTGTATATATATACAGTAACAATAAAGATTCA (double strand) [4xLexA UAS (P95)]
- activity on this sequence: active
